# Publication PMC7819943, “Rice protein-binding microarrays: a tool to detect cis-acting elements near promoter regions in rice”
# The other results are listed elsewhere or left out.
# Target: T1, OsSMF1 (Oryza sativa, UniProt Q6ZLB0 1-436)
# T1 sequence: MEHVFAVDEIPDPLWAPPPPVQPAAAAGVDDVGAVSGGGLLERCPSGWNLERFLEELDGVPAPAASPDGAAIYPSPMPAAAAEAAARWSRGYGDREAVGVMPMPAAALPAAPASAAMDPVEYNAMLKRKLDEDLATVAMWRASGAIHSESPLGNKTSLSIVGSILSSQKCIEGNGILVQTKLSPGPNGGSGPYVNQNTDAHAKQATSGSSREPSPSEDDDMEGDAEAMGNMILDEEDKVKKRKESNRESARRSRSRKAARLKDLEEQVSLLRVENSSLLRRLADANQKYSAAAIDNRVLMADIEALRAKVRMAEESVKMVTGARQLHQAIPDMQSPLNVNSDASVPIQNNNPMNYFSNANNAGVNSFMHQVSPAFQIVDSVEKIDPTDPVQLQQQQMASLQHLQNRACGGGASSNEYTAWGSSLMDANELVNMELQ
# Assay: protein-binding microarray (RPBM); PBS, 2% BSA, 51.3 ng/ul salmon testes DNA, 50 uM zinc acetate, 200 nM TF, 25 C, 1 h; high values mean tight binding
# Conditions: protein: recombinant; tags: N-terminal polyhistidine and DsRed monomer fusion (pET32a); chain copies: 2; label: CyDye5-dUTP incorporated in the synthesized complementary strand; 3' TTTTT single-stranded linker to array surface; dsDNA, one strand shown
# Summary of the method: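 In PBS with 2% BSA, salmon testes DNA and 50 µM zinc acetate, 200 nM protein was incubated on a custom Agilent array at 25 °C for 1 h and then washed off. The array had been made double-stranded by primer extension with Cy5-dUTP and blocked with 2% BSA. The proteins were transcription factors fused N-terminally to polyhistidine and DsRed, expressed in E. coli BL21-CodonPlus and purified on Ni–NTA. The binding signal is per-feature fluorescence intensity (arbitrary units) from an Axon 4000B scanner.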
row,Sequence,binding signal
1,CCTTGCTAACTCATCTCAATGCCATCTATAAATTCAGCATCGGAGTCACCTAGTGCAG,3140 fluorescence intensity (a.u.)
2,GAATGACTGAATCTGATCTGTCAGATTGCCTGATGGTTCTCGGAGTCACCTAGTGCAG,3680 fluorescence intensity (a.u.)
3,GCACCACCGGCGCATCGCGCGTCCTCATCCAGCGAAGCCGCGGAGTCACCTAGTGCAG,3660 fluorescence intensity (a.u.)
4,GTAATGTGAAAGGGGACGGTGTCAGCGTCATTGCACCAAGCGGAGTCACCTAGTGCAG,3310 fluorescence intensity (a.u.)
5,GATTGCTTTGAAGCTGTCGTCGTGGCAATTGCTTCCCGCGCGGAGTCACCTAGTGCAG,5630 fluorescence intensity (a.u.)
6,CGGTGGCGGGAACATGTGGGCGGTGGCAGGAGTGCAGGTGCGGAGTCACCTAGTGCAG,3810 fluorescence intensity (a.u.)
7,GGTGCGCGTGCCGGCCATTGATGTCACAATTATCGGGCCCCGGAGTCACCTAGTGCAG,3890 fluorescence intensity (a.u.)
8,TAGTTTAATACTAGTCATCAGCGTAGCATGGCTGTCAAGTCGGAGTCACCTAGTGCAG,3540 fluorescence intensity (a.u.)
9,CTTGTCCACCAGCTGCCGAATCACCACCACCATCACAACCCGGAGTCACCTAGTGCAG,5660 fluorescence intensity (a.u.)
10,AACCCACGCCCGAGCCAGAGCCAGGTCGCCGCGCCACCTCCGGAGTCACCTAGTGCAG,3650 fluorescence intensity (a.u.)
11,ATATATATATATATATATTGTGAGGGGATCTAGTGCCTGGCGGAGTCACCTAGTGCAG,3320 fluorescence intensity (a.u.)
12,TGATGATGAGTTGGGGTTGATTCGTGCTCTATACCACCCCCGGAGTCACCTAGTGCAG,3310 fluorescence intensity (a.u.)
13,AACGATGTTACTTACCAAGTGACAAGACGTGGACGTGTTGCGGAGTCACCTAGTGCAG,4550 fluorescence intensity (a.u.)
14,GTAAAGTCACACGTGACACCGTGACAAGCACACCCTTCGCCGGAGTCACCTAGTGCAG,5030 fluorescence intensity (a.u.)
15,AGCAGTAACCACGAAAGCGCTCGGCTCCACACGCCACGCACGGAGTCACCTAGTGCAG,3280 fluorescence intensity (a.u.)
16,CCTATGAACAGTTATGACTCCGTCACAAAACAAATGTCACCGGAGTCACCTAGTGCAG,4160 fluorescence intensity (a.u.)
17,TAATAACAGTATTATAATAAGTTGGTCCAACTCATCTCTCCGGAGTCACCTAGTGCAG,4870 fluorescence intensity (a.u.)
18,ATGACGATGATGGTGATGGAGTCGGGTACTGGTGATGGTACGGAGTCACCTAGTGCAG,3550 fluorescence intensity (a.u.)
19,CACCGCGACGCACATACCCACCCGCCGGCCACGCACGAGACGGAGTCACCTAGTGCAG,4460 fluorescence intensity (a.u.)
20,GGCAGGCTTGCACACAGGTGCAAAGATACGTGTGGCAGACCGGAGTCACCTAGTGCAG,3240 fluorescence intensity (a.u.)
21,GGCCGTGCAAGCGCCACGTAGCTGCACAAACAAGGCCGTACGGAGTCACCTAGTGCAG,3820 fluorescence intensity (a.u.)

row,Sequence,binding signal
1,CCCGATAAAGTCCACAATTTGCCATCAGCGGTAAGCGTGGCGGAGTCACCTAGTGCAG,3910 fluorescence intensity (a.u.)
2,AATTTCTGTCACGGTGTCACTTCACATCAAATCATAAAACCGGAGTCACCTAGTGCAG,3430 fluorescence intensity (a.u.)
3,GTGTGGCGCTGAACTTAGACACCTCAGCGCCAAATAGCGTCGGAGTCACCTAGTGCAG,4850 fluorescence intensity (a.u.)
4,AAATGTTATCCACGTAAGAAAGGACTTTGTAGTCTGACTTCGGAGTCACCTAGTGCAG,6450 fluorescence intensity (a.u.)
5,GCCGACGACGAAGCCGAGGTGGCGTGGCCGCATGGCGGTGCGGAGTCACCTAGTGCAG,4200 fluorescence intensity (a.u.)
6,AGTGAAGTCACAAGGAAGTGACGAGGATGAGGACGAGGAGCGGAGTCACCTAGTGCAG,28700 fluorescence intensity (a.u.)
7,ACGGACCTTTGTAGGGTAAGTGTGCGTGTAGATATAAGTGCGGAGTCACCTAGTGCAG,3310 fluorescence intensity (a.u.)
8,TAAATGACCTGGATTCGTAACCTCACCCCTTCTAATTATTCGGAGTCACCTAGTGCAG,4070 fluorescence intensity (a.u.)
9,ACTCTCACCATATACCCAGTGCCGTCAGGAGGATGTTGAACGGAGTCACCTAGTGCAG,4050 fluorescence intensity (a.u.)
10,AATTTAATCGCGATAGATTGGTTTAACTCTAATCCGGGAGCGGAGTCACCTAGTGCAG,3450 fluorescence intensity (a.u.)
11,AAGCAGCCGCGGTGGCCGTGTACCGCGCAACTCCACGCTACGGAGTCACCTAGTGCAG,3180 fluorescence intensity (a.u.)
12,GTAGCTTGGTTAATAATAATTGTACACAACTTGGTCGTAACGGAGTCACCTAGTGCAG,3320 fluorescence intensity (a.u.)
13,TTAATGTCCTAAGTTTAGTGGTGGAGTCATACATCTATCTCGGAGTCACCTAGTGCAG,4540 fluorescence intensity (a.u.)
14,CATCATCATCTCTTCTCCTCTCTCTCTCTCTTTCCTTTTCCGGAGTCACCTAGTGCAG,8580 fluorescence intensity (a.u.)
15,GTGCCAGCTGGATATCCTCCATCCGCCGCCCCACGTCCCCCGGAGTCACCTAGTGCAG,4580 fluorescence intensity (a.u.)
16,GAATCCTTTTGGTGGTTTAAGAACGGTCAGCAAGTAGGTTCGGAGTCACCTAGTGCAG,4060 fluorescence intensity (a.u.)
17,AAAACGACTATCGTTGACGAGACATCCACGTGGTAGTCCACGGAGTCACCTAGTGCAG,4520 fluorescence intensity (a.u.)
18,ATATCATGCCCAGATATTAAACTAAAATTATATTAGATACCGGAGTCACCTAGTGCAG,4080 fluorescence intensity (a.u.)
19,GAAGCAACCGCATGTATCCCTTCCCACCACATCCTTGATCCGGAGTCACCTAGTGCAG,3170 fluorescence intensity (a.u.)
20,CCCTCTATTCAGACATATCTCACCCAACTTACTGAACGCCCGGAGTCACCTAGTGCAG,7260 fluorescence intensity (a.u.)
21,TGTGATACCCTATATAATAACCGATGTGACACGATAAAATCGGAGTCACCTAGTGCAG,3590 fluorescence intensity (a.u.)

# Laid out differently: entries from further up.
row | Sequence | binding signal
9 | ACTCTCACCATATACCCAGTGCCGTCAGGAGGATGTTGAACGGAGTCACCTAGTGCAG | 4050 fluorescence intensity (a.u.)
10 | AATTTAATCGCGATAGATTGGTTTAACTCTAATCCGGGAGCGGAGTCACCTAGTGCAG | 3450 fluorescence intensity (a.u.)
11 | AAGCAGCCGCGGTGGCCGTGTACCGCGCAACTCCACGCTACGGAGTCACCTAGTGCAG | 3180 fluorescence intensity (a.u.)
